Hit rate of the full screen: of about 310,000 compounds, about 17,000 (5.5%) were called active. Inconclusive results, whose numbers are uncertain, are shown with a selection of clear calls. The call rests on the fitted dose curve; in most records, active means well fitted inhibition curve with a large enough effect; inconclusive means small, poorly fitted or top-dose-only effect, or effect the other way; inactive means no such curve, though single readings can be large or run the other way. Potencies beside an inconclusive call are fits to weak or partial responses and may not hold up.
target: Nuclear receptor ROR-gamma (Mus musculus) (UniProt P51450); experiment: qHTS for inhibitors of ROR gamma transcriptional activity; conditions: Drosophila S2 Gal4-RORgamma UAS-luciferase reporter, 20 h; activity change, negative = inhibition: at 53.6 µM (top of the series); further: nearly all actives have a fitted effect of over 60% in size
Procedure, shortened: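 Drosophila Schneider cells stably carrying a metallothionein-driven Gal4 DBD–ROR gamma fusion and a UAS-Photinus luciferase reporter were exposed to compound for 1 hr, then induced with copper sulfate (700 uM final) for 20 hr at ambient temperature before luminescence reading.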
On the % scale 0 is the no-effect control and ±100 the full control effect; potency means the concentration at half of the fitted maximal effect.

Amino acid sequences for entries named in this document (tags omitted). A change or cut given only in a name is not applied to a line headed by its entry.
UniProt P51450: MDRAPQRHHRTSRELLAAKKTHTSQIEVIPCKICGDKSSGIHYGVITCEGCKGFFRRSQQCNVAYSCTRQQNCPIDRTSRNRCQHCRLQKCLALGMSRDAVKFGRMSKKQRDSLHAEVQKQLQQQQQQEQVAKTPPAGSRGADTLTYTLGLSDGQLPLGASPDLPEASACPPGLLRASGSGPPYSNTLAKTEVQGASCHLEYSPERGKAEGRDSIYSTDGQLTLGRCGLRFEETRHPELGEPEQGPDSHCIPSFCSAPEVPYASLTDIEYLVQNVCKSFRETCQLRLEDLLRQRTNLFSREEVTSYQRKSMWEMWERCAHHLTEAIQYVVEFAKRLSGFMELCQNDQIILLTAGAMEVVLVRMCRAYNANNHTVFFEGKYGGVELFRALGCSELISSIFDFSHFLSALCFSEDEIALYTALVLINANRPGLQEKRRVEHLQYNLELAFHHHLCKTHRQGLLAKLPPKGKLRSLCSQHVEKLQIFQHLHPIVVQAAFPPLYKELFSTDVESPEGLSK

Potency, active:
COc1ccc(CCNC(=O)c2ccc3nc(N4CCCCC4)sc3c2)cc1OC 2.24 µM, O=C(Nc1cccc([N+](=O)[O-])c1)c1cc2ccccc2cc1O 5.01 µM, CCOC(=O)c1sc(NC(=O)c2cc3ccccc3o2)nc1C 3.98 µM, O=C1N/C(=N\N=C\c2cccnc2)SC1Cc1ccc(SC(F)F)cc1 (centres undefined) 0.501 µM, CCc1ccccc1NC(=S)N(CCN1CCCCC1)Cc1ccco1 11.2 µM, COc1ccccc1NC(=O)Cc1csc(NC(=S)Nc2ccccc2)n1 1.12 µM, CC(C)(C)c1nnc(N/N=C/c2ccc(O)cc2)n(N)c1=O 1.26 µM, CCN(CC)c1ccc(/C=N/n2c(-c3ccccc3Br)n[nH]c2=S)cc1 1 µM

Potency, inconclusive:
CCOC(=O)[C@@H]1[C@H]2COc3cc(OC)ccc3[C@@H]2N2C(=O)N(c3cccc(C)c3)C(=O)[C@@]12C 12.6 µM [inhibitor, single point], CCN(CC)S(=O)(=O)c1cccc(NC(=O)c2ccc(C#N)cc2)c1 15.8 µM [activator, single point], CSc1ccccc1OCc1cc(C(=O)N2CCC(Oc3cccnc3)CC2)no1 11.2 µM [activator, partial curve], O=[N+]([O-])c1ccc(/C=N\NS(=O)(=O)c2ccc(F)cc2)o1 35.5 µM [inhibitor, single point], N#Cc1c(N2CCN(C(=O)c3ccco3)CC2)nc(-c2ccccc2)c2c1CCCC2 35.5 µM [inhibitor, single point], CCC1CN(C(=O)N2CCC(C(=O)NCc3ccccc3OC)CC2)c2cc(C)ccc2O1 (centres undefined) 35.5 µM [activator, single point], COc1ccc(C2=NS(=O)(=O)N(C)C(C(=O)N3CCc4ccccc4C3)=C2)cc1OC 7.08 µM [activator, full curve], CC(C)(C)c1nn(-c2ccccc2)c2[nH]c(=O)c(CNCc3ccco3)cc12 35.5 µM [inhibitor, single point], Fc1ccc2[nH]c3c(N4CCSCC4)ncnc3c2c1 35.5 µM [inhibitor, single point], Cc1cc(Cl)ccc1OC(C)C(=O)Nc1ccccc1N1CCOCC1 (centres undefined) 15.8 µM [inhibitor, single point], CNC[C@H](CC1CCCCC1)NC[C@H](CO)NCCc1cccc(C(F)(F)F)c1 35.5 µM [inhibitor, single point], O=C(NC1CCc2ccccc21)C12CN(Cc3ccccc3)CC1C(c1cccc([N+](=O)[O-])c1)=NO2 (centres undefined) 12.6 µM [inhibitor, single point], CCNc1nc(NCC)nc(SCCOC(=O)c2ccccc2)n1 35.5 µM [activator, single point], Cc1ccnc(NC(=O)Cc2c(F)cccc2Cl)c1 0.631 µM [inhibitor, single point], CCC(=O)NC[C@H](Cc1ccc(OCCc2nc(-c3ccccc3)oc2C)cc1)N/C(C)=C\C(=O)c1ccc(C(F)(F)F)cc1 22.4 µM [activator, single point], Cc1ccccc1NC(=O)c1cccc(Cn2cc(Br)c([N+](=O)[O-])n2)c1 12.6 µM [activator, partial curve], O=C(N/N=C/c1ccccc1C(F)(F)F)c1ccc(O)cc1 2.82 µM [inhibitor, full curve], Cn1c(=O)c(C(=O)NCCCc2ccccc2)c(O)c2ccccc21 22.4 µM [inhibitor, single point], O=C(Nc1nc2c(F)cccc2s1)c1ccc([N+](=O)[O-])o1 12.6 µM [inhibitor, partial curve, poor fit], COc1ccc(NC(=O)CC2SC(=N)N(c3ccccc3)C2=O)c(OC)c1 (centres undefined) 0.355 µM [activator, partial curve, poor fit], CCCCCCn1cnc2c(oc3nc4c(cc32)CCCC4)c1=O 1 µM [activator, full curve, poor fit], CCn1c(SCC(=O)N/N=C/c2ccc(C)o2)nnc1-c1ccc(C(C)(C)C)cc1 11.2 µM [activator, single point], O=C(Nc1ccc(N2CCCCC2)cc1)c1ccc2ccccc2n1 0.708 µM [inhibitor, full curve, poor fit], COc1ccc(OC)c(C(=O)CSc2nccc(-c3ccc(Br)cc3)n2)c1 6.31 µM [activator, single point], C/C(=N\NC(=O)c1ccc(Br)cc1)c1cccnc1 22.4 µM [inhibitor, single point], CC(C)c1ccc(C(=O)N2CCN(c3cnn(C)c(=O)c3Cl)CC2)cc1 35.5 µM [activator, single point], COc1ccc2nc(SCC(=O)Nc3ccccc3C#N)[nH]c2c1 11.2 µM [activator, single point]

Activity change, negative = inhibition, inactive:
CCCCc1nc2ccccc2c(N)c1CCC (tested in a mixture with another compound) -11.2%, CC(C)CN1CCC(Oc2cccc(C(=O)NCCc3ccccc3)c2)CC1 -17.6%, COc1ccc(CC(C)CC(=O)NCCc2ccc(OC)c(OC)c2)cc1 (centres undefined) 12.5%, CCCC(=O)Nc1nc(C(=O)OCC)cs1 14.2%, CC(C)CN1CCC(C(=O)N2CCN(c3ccccc3F)CC2)CC1 -14.3%, Cc1cc(C)c(NC(=O)CN2CCCCCC2)c(C)c1 -2.87%, O=C(CNCc1ccccc1)Nc1cccc(Cl)c1Cl 4.55%, COc1cccc(-c2csc(N3CCN(S(=O)(=O)c4ccc(F)cc4)CC3)n2)c1 -24.6% [at 10 µM], CC(C)CCn1c(=O)c2c(nc3n2CCCN3Cc2ccccc2)n(C)c1=O 39.1%

Reference: PubChem BioAssay AID2551 (National Center for Advancing Translational Sciences (NCATS), 2010)
